Laboratory results as given in publication PMC12748396.
No constants are given. Whether binding was seen depends on the method and setting. In cells and extracts the contact can be indirect. Some entries that bind do so weakly or less than the wild type. For some of these results: Sequences can lack the tags named with a protein.

T1: Trem2, transfected in HEK293T cells (UniProt Q99NH8)
T1 sequence: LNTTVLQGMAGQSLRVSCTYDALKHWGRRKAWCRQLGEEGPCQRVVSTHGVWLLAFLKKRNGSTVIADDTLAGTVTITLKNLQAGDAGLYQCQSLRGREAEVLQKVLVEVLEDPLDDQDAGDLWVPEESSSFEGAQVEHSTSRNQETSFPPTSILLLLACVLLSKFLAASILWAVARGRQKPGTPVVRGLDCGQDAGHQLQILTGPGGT

T2: Trem2, endogenous in RAW 264.7 cells (mouse (endogenous in RAW 264.7)) (UniProt Q99NH8)
T2 sequence: T1 sequence

T3: GST-IL-13 fusion protein (mouse) (UniProt P20109)
T3 sequence: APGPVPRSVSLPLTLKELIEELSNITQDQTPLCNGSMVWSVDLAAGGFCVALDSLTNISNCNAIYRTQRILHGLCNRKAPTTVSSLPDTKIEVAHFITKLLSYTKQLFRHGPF

B1: IL-13, transfected in HEK293T cells (ligand, UniProt P20109 19-131)
chain: T3 sequence
B2: IL-13, endogenous in RAW 264.7 cells (ligand, UniProt P20109 19-131)
chain: T3 sequence
B3: His-Trem2 [NT-aa1-132] (domain or fragment, UniProt Q99NH8 19-132)
chain: LNTTVLQGMAGQSLRVSCTYDALKHWGRRKAWCRQLGEEGPCQRVVSTHGVWLLAFLKKRNGSTVIADDTLAGTVTITLKNLQAGDAGLYQCQSLRGREAEVLQKVLVEVLEDP
B4: His-Trem2 [NT-aa133-227] (domain or fragment, UniProt Q99NH8 133-227)
chain: LDDQDAGDLWVPEESSSFEGAQVEHSTSRNQETSFPPTSILLLLACVLLSKFLAASILWAVARGRQKPGTPVVRGLDCGQDAGHQLQILTGPGGT

Assays:
[1] = target: T1, Trem2, transfected in HEK293T cells; experiment: co-IP; lysates of transfected HEK-293T cells incubated overnight at 4 °C with anti-IL-13 or anti-Trem2 antibodies, protein A/G Plus-agarose 2 h, Western blotting
[2] = target: T2, Trem2, endogenous in RAW 264.7 cells (mouse (endogenous in RAW 264.7)); experiment: co-IP; endogenous proteins; lysates of RAW 264.7 cells and of RAW 264.7 cells with IL-13 receptor knockout (IL-13R-KO), anti-IL-13 or anti-Trem2 antibodies overnight at 4 °C, protein A/G Plus-agarose 2 h, Western blotting
[3] = target: T3, GST-IL-13 fusion protein (mouse); experiment: pull-down; GST-IL-13 immobilised on GST beads, incubated with binding buffer containing His-tagged Trem2 fragments expressed in HEK-293T cells; Western blotting

| Binder | binding [3] | also measured |
| --- | --- | --- |
| B1 |  | binding [1]: binds |
| B2 |  | binding [2]: binds |
| B3 | binds |  |
| B4 | no binding |  |
